{"sequences": {"note": "Amino acid sequences for entries named in this document (tags omitted). A change or cut given only in a name is not applied to a line headed by its entry.", "UniProt P02454": "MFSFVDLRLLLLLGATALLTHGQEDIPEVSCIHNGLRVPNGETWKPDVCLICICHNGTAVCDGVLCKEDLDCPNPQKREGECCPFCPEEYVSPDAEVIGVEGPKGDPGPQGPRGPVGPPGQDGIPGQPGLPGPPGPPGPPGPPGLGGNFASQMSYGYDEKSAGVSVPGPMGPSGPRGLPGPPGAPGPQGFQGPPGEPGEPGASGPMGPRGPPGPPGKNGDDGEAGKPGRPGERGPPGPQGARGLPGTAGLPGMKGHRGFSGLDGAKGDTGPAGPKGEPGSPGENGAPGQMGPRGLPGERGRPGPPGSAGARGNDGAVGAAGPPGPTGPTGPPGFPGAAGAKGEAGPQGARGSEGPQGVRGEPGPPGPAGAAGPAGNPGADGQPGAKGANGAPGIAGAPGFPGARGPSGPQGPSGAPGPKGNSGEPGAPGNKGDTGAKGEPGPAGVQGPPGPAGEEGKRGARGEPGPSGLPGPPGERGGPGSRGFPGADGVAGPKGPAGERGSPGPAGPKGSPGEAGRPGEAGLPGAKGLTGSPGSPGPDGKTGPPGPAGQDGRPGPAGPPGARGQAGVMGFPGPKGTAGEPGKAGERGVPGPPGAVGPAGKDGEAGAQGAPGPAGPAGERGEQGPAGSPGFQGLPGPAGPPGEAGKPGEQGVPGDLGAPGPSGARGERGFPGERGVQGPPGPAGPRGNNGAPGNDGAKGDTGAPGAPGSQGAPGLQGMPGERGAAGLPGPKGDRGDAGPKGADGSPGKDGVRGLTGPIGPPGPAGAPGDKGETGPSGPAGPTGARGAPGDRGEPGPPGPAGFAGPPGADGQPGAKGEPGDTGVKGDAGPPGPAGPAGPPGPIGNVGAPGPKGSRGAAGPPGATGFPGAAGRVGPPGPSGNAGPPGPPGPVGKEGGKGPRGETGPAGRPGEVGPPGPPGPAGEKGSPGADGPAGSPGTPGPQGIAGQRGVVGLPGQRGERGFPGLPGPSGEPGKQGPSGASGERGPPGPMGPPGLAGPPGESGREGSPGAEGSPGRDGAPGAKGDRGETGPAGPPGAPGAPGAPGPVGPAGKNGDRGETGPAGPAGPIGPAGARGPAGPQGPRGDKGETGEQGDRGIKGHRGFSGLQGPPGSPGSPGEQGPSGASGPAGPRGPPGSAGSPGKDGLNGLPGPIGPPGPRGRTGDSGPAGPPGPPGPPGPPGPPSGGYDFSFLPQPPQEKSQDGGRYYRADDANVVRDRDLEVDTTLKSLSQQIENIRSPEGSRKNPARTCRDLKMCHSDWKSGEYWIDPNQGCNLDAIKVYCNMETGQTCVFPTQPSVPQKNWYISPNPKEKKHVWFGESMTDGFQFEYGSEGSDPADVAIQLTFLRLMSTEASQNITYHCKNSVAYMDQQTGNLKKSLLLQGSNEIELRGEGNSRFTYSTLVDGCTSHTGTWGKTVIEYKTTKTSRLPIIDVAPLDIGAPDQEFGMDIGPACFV", "UniProt P56199": "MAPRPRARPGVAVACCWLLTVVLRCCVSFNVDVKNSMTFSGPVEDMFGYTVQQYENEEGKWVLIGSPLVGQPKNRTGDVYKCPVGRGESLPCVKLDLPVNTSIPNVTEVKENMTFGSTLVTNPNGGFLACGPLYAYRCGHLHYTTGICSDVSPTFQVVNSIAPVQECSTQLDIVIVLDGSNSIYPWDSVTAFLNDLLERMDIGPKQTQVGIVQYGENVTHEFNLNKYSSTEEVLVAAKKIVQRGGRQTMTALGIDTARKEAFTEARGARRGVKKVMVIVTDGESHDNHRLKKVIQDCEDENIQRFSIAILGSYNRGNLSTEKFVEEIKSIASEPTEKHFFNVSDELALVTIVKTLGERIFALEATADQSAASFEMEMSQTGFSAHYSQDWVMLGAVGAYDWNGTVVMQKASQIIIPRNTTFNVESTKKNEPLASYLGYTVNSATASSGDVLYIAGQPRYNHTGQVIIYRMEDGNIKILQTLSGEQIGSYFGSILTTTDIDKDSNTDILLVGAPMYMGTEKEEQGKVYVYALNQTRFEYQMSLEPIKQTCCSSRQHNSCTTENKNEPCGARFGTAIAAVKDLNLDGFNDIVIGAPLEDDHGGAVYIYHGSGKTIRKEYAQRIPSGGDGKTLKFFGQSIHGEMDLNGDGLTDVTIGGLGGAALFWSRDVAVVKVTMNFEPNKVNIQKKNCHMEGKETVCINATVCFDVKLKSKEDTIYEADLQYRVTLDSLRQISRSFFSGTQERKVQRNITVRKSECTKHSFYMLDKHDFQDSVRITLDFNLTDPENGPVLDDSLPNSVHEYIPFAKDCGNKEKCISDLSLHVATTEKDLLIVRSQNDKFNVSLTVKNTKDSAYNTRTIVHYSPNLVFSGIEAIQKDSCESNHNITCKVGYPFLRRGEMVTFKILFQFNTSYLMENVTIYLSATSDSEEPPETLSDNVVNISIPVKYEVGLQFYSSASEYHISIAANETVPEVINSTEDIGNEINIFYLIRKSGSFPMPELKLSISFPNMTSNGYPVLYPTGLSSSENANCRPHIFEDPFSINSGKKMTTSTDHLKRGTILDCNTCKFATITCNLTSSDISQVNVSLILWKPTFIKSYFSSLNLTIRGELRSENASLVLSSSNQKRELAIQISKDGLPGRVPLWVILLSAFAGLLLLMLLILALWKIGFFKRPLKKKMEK"}, "source": "paper PMC7960628", "biological_target": "collagen I (rat tail, Collaborative Biomedical Products) (rat) (UniProt P02454)", "assay": "ELISA; solid-phase assay: 0.25 μg of collagens I, IV, XIII in 50 μl TBS coated on microtiter plates; GST-I domains soluble, diluted in TBS with 30 μg/ml BSA, 2 mM MgCl2, 0.05% Tween-20; room temperature; detected with anti-GST antibody; both purified", "note": "These are yes or no findings as the source states them, for the method shown. Binding calls can cover weak binding; strength is not graded here.", "data": [{"substance": "GST-α1-I domain (recombinant I domain of human integrin α1) (from UniProt P56199) (domain or fragment)", "values": [{"measurement": "binding", "result": "binds"}]}]}
